Experimental data taken from PubChem BioAssay AID1345085 (National Center for Advancing Translational Sciences (NCATS), 2018).
Inconclusive results, whose numbers are uncertain, are shown with a selection of clear calls. Where the call is inconclusive, the potency comes from a doubtful curve fit. Active and inactive are the calls of the source. The call rests on the fitted dose curve; in most records, active means well fitted cell-killing curve with a large enough effect; inconclusive means small, poorly fitted or top-dose-only effect, or effect the other way; inactive means no such curve, though single readings can be large or run the other way.

What follows are compounds tested on CASKI (assay: Confirmatory qHTS for gynecologic anti-cancer compounds from libraries of approved drugs and bioactive compounds). Conditions: gynecologic cancer cell panel viability, ATPlite luminescence, 48 h; series mostly up to 57.6 µM; activity change, negative = viability loss: at the top concentration.
Procedure, shortened: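 Viability is measured as ATP-dependent luciferase light using ATPlite, read 15 min after reagent addition at room temperature. Compounds, in DMSO, span 57.5 uM down to 0.977 nM over 11 threefold steps for 48 h.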
Further: nearly all actives have a fitted effect of over 55% in size.
On the % scale 0 is the no-effect control and ±100 the full control effect; potency means the concentration at half of the fitted maximal effect.

Structure (SMILES) | activity change, negative = viability loss | Potency
COc1ccccc1N1CCN(CC(O)COc2cccc3ccccc23)CC1 (configuration not stated) | inactive: -4.81% | 
COc1ccc2c(c1OC)C(=O)O[C@@H]2[C@H]1c2c(cc3c(c2OC)OCO3)CCN1C |  | inconclusive: 24.3 µM [cytotoxic, partial curve, poor fit]
Cc1cc(C(C)Nc2ccccc2C(=O)O)c2nc(N3CCOCC3)cc(=O)n2c1 (configuration not stated) |  | active: 6.85 µM
CN(C)C1CCN(C(=O)c2ccc(NC(=O)Nc3nc(N4CCOCC4)nc(N4CCOCC4)n3)cc2)CC1 |  | active: 0.273 µM
COc1cc(N2CCC(N3CCN(C)CC3)CC2)ccc1Nc1ncnc(Nc2ccccc2S(=O)(=O)C(C)C)n1 |  | inconclusive: 17.2 µM [cytotoxic, partial curve, poor fit]
CC(=O)c1cnc2ccc(-c3cc(Cl)c(O)c(Cl)c3)nc2c1NC1CCC(CN(C)C)CC1 (configuration not stated) |  | active: 0.559 µM
CCN(CC)CCCC(C)Nc1ccnc2cc(Cl)ccc12 (configuration not stated) |  | inconclusive: 0.0133 µM [rising, partial curve, poor fit]
C[C@@]1(C(=O)Nc2ccc(F)nc2)CCCN1c1nc(Nc2cc(C3CC3)[nH]n2)c2cccn2n1 |  | inconclusive: 13.7 µM [cytotoxic, partial curve]
CCCCN(CCCC)CC(O)c1cc(Cl)cc2c1-c1ccc(Cl)cc1/C2=C/c1ccc(Cl)cc1 (configuration not stated) |  | inconclusive: 0.385 µM [rising, partial curve, poor fit]
NC1(c2ccc(-c3nc4ccn5c(=O)[nH]nc5c4cc3-c3ccccc3)cc2)CCC1 |  | inconclusive: 0.611 µM [rising, partial curve]
COc1cc(N2CCC(N(C)C)CC2)ccc1Nc1ncc(Cl)c(Nc2ccccc2P(C)(C)=O)n1 |  | active: 7.69 µM
CC(C)n1c(/C=C/[C@@H](O)C[C@@H](O)CC(=O)O)c(-c2ccc(F)cc2)c2ccccc21 |  | inconclusive: 9.68 µM [cytotoxic, full curve]
Cc1ccc2nc(N)[nH]c(=O)c2c1Sc1ccncc1 |  | inconclusive: 2.17 µM [cytotoxic, full curve]
Cc1nc2ccc(CN(C)c3ccc(C(=O)NC(CCC(=O)O)C(=O)O)s3)cc2c(=O)[nH]1 (configuration not stated) |  | inconclusive: 3.85 µM [cytotoxic, partial curve, poor fit]
C=CC(=O)Nc1cccc(Oc2nc(Nc3ccc(N4CCN(C)CC4)cc3)ncc2Cl)c1 |  | active: 10.9 µM
Cc1ccc(C(=O)Nc2ccc(Oc3cc4cnn(C)c4cc3-c3cn[nH]c3)c(F)c2)c(=O)n1-c1ccc(F)cc1 | inactive: -29.1% | 

Two successive entries out of the list so far, quoted:
Structure (SMILES) | activity change, negative = viability loss | Potency
COc1cc(N2CCC(N(C)C)CC2)ccc1Nc1ncc(Cl)c(Nc2ccccc2P(C)(C)=O)n1 |  | active: 7.69 µM
CC(C)n1c(/C=C/[C@@H](O)C[C@@H](O)CC(=O)O)c(-c2ccc(F)cc2)c2ccccc21 |  | inconclusive: 9.68 µM [cytotoxic, full curve]

More results.

Structure (SMILES) | activity change, negative = viability loss | Potency
NS(=O)(=O)OC[C@@H]1C[C@@H](n2ccc3c(N[C@H]4CCc5ccccc54)ncnc32)C[C@@H]1O |  | inconclusive: 0.685 µM [rising, full curve]
CC(=O)Nc1cccc(-n2c(=O)n(C3CC3)c(=O)c3c(Nc4ccc(I)cc4F)n(C)c(=O)c(C)c32)c1 |  | inconclusive: 0.544 µM [cytotoxic, full curve, poor fit]
Cc1cc(SCc2sc(-c3ccc(C(F)(F)F)cc3)nc2C)ccc1OCC(=O)O |  | inconclusive: 0.0019 µM [rising, full curve]
CCOc1ccc(Nc2nc(-c3c(C)nc4ccccn34)cs2)cc1 |  | inconclusive: 43.2 µM [cytotoxic, single point]
CN(C)c1ccc2nc3ccc(=[N+](C)C)cc-3sc2c1 |  | inconclusive: 0.0306 µM [rising, full curve]
COCCOc1ccc2c(c1)ncn2-c1ccc2cccc(N3CCC(N)CC3)c2n1 |  | active: 27.3 µM
CCC1C(=O)N(C)c2cnc(Nc3ccc(C(=O)NC4CCC(N5CCN(CC6CC6)CC5)CC4)cc3OC)nc2N1C(C)C (configuration not stated) |  | active: 6.11 µM
COc1cc2c(Nc3ccc(NC(=O)c4ccccc4)cc3)ncnc2cc1OCCCN1CCOCC1 |  | inconclusive: 19.3 µM [cytotoxic, partial curve]
Cc1cnc(Nc2ccc(OCCN3CCCC3)cc2)nc1Nc1cccc(S(=O)(=O)NC(C)(C)C)c1 |  | active: 19.3 µM
CCn1cc(-c2ccnc3[nH]c(-c4cccc(CN(C)C)c4)cc23)c(-c2ccc(NC(=O)N(C)C)cc2)n1 |  | inconclusive: 1.5 µM [cytotoxic, full curve]
Cn1cnc2c(F)c(Nc3ccc(Br)cc3Cl)c(C(=O)NOCCO)cc21 |  | inconclusive: 0.611 µM [cytotoxic, full curve]
Cc1cnc(Nc2ccc(F)cc2Cl)nc1-c1c[nH]c(C(=O)NC(CO)c2cccc(Cl)c2)c1 (configuration not stated) |  | inconclusive: 0.0243 µM [rising, full curve]
COc1cc(C(=O)N2CCC(N3CCN(C)CC3)CC2)ccc1Nc1ncc2c(n1)N(C)c1ccccc1C(=O)N2C |  | inconclusive: 17.2 µM [cytotoxic, partial curve]
Cc1cncc2cccc(S(=O)(=O)N3CCCN(C(=O)CN)C[C@@H]3C)c12 | inactive: -17.1% | 
Nc1ncnc2c1ncn2[C@@H]1O[C@H](CO)C[C@H]1O |  | inconclusive: 0.109 µM [rising, partial curve, poor fit]
COc1c(C)c2c(c(O)c1C/C=C(\C)CCC(=O)OCCN1CCOCC1)C(=O)OC2 |  | inconclusive: 9.68 µM [cytotoxic, single point]
